Assay results taken from paper PMC4636271.
These are yes or no findings as the source states them, for the method shown. Binding seen in cells or lysates may run through a third protein. A yes stands for co-enrichment or nearness to the bait. Other partners may have been found. A no says only that the protein was not detected with the bait.

Protein sequences, listed by entry. Tags and fused reporters are not part of them.
UniProt Q15046: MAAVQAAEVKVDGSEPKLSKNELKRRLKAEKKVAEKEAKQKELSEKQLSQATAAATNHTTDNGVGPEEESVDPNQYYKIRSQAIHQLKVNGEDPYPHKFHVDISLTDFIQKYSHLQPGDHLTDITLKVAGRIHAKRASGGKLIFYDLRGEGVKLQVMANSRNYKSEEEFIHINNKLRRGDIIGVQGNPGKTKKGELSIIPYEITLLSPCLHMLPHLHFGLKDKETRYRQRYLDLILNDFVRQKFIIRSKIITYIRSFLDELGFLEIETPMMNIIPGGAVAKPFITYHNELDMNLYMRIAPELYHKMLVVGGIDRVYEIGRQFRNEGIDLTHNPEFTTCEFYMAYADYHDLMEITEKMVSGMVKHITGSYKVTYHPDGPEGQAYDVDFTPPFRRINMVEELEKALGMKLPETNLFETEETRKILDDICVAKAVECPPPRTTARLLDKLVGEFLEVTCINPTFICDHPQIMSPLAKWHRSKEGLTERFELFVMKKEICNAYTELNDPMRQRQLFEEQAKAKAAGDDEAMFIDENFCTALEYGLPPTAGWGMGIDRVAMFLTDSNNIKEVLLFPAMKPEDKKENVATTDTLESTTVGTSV

B1: IARS (enzyme, UniProt P41252 1-1262)
chain: MLQQVPENINFPAEEEKILEFWTEFNCFQECLKQSKHKPKFTFYDGPPFATGLPHYGHILAGTIKDIVTRYAHQSGFHVDRRFGWDCHGLPVEYEIDKTLGIRGPEDVAKMGITEYNNQCRAIVMRYSAEWKSTVSRLGRWIDFDNDYKTLYPQFMESVWWVFKQLYDKGLVYRGVKVMPFSTACNTPLSNFESHQNYKDVQDPSVFVTFPLEEDETVSLVAWTTTPWTLPSNLAVCVNPEMQYVKIKDVARGRLLILMEARLSALYKLESDYEILERFPGAYLKGKKYRPLFDYFLKCKENGAFTVLVDNYVKEEEGTGVVHQAPYFGAEDYRVCMDFNIIRKDSLPVCPVDASGCFTTEVTDFAGQYVKDADKSIIRTLKEQGRLLVATTFTHSYPFCWRSDTPLIYKAVPSWFVRVENMVDQLLRNNDLCYWVPELVREKRFGNWLKDARDWTISRNRYWGTPIPLWVSDDFEEVVCIGSVAELEELSGAKISDLHRESVDHLTIPSRCGKGSLHRISEVFDCWFESGSMPYAQVHYPFENKREFEDAFPADFIAEGIDQTRGWFYTLLVLATALFGQPPFKNVIVNGLVLASDGQKMSKRKKNYPDPVSIIQKYGADALRLYLINSPVVRAENLRFKEEGVRDVLKDVLLPWYNAYRFLIQNVLRLQKEEEIEFLYNENTVRESPNITDRWILSFMQSLIGFFETEMAAYRLYTVVPRLVKFVDILTNWYVRMNRRRLKGENGMEDCVMALETLFSVLLSLCRLMAPYTPFLTELMYQNLKVLIDPVSVQDKDTLSIHYLMLPRVREELIDKKTESAVSQMQSVIELGRVIRDRKTIPIKYPLKEIVVIHQDPEALKDIKSLEKYIIEELNVRKVTLSTDKNKYGIRLRAEPDHMVLGKRLKGAFKAVMTSIKQLSSEELEQFQKTGTIVVEGHELHDEDIRLMYTFDQATGGTAQFEAHSDAQALVLLDVTPDQSMVDEGMAREVINRIQKLRKKCNLVPTDEITVYYKAKSEGTYLNSVIESHTEFIFTTIKAPLKPYPVSPSDKVLIQEKTQLKGSELEITLTRGSSLPGPACAYVNLNICANGSEQGGVLLLENPKGDNRLDLLKLKSVVTSIFGVKNTELAVFHDETEIQNQTDLLSLSGKTLCVTAGSAPSLINSSSTLLCQYINLQLLNAKPQECLMGTVGTLLLENPLGQNGLTHQGLLYEAAKVFGLRSRKLKLFLNETQTQEITEDIPVKTLNMKTVYVSVLPTTADF
B2: Threonyl-tRNA synthetase (TARS) (enzyme, UniProt P26639 1-723)
chain: MFEEKASSPSGKMGGEEKPIGAGEEKQKEGGKKKNKEGSGDGGRAELNPWPEYIYTRLEMYNILKAEHDSILAEKAEKDSKPIKVTLPDGKQVDAESWKTTPYQIACGISQGLADNTVIAKVNNVVWDLDRPLEEDCTLELLKFEDEEAQAVYWHSSAHIMGEAMERVYGGCLCYGPPIENGFYYDMYLEEGGVSSNDFSSLEALCKKIIKEKQAFERLEVKKETLLAMFKYNKFKCRILNEKVNTPTTTVYRCGPLIDLCRGPHVRHTGKIKALKIHKNSSTYWEGKADMETLQRIYGISFPDPKMLKEWEKFQEEAKNRDHRKIGRDQELYFFHELSPGSCFFLPKGAYIYNALIEFIRSEYRKRGFQEVVTPNIFNSRLWMTSGHWQHYSENMFSFEVEKELFALKPMNCPGHCLMFDHRPRSWRELPLRLADFGVLHRNELSGALTGLTRVRRFQQDDAHIFCAMEQIEDEIKGCLDFLRTVYSVFGFSFKLNLSTRPEKFLGDIEVWDQAEKQLENSLNEFGEKWELNSGDGAFYGPKIDIQIKDAIGRYHQCATIQLDFQLPIRFNLTYVSHDGDDKKRPVIVHRAILGSVERMIAILTENYGGKWPFWLSPRQVMVVPVGPTCDEYAQKVRQQFHDAKFMADIDLDPGCTLNKKIRNAQLAQYNFILVVGEKEKISGTVNIRTRDNKVHGERTISETIERLQQLKEFRSKQAEEEF
B3: WARS (enzyme, UniProt P23381 1-471)
chain: MPNSEPASLLELFNSIATQGELVRSLKAGNASKDEIDSAVKMLVSLKMSYKAAAGEDYKADCPPGNPAPTSNHGPDATEAEEDFVDPWTVQTSSAKGIDYDKLIVRFGSSKIDKELINRIERATGQRPHHFLRRGIFFSHRDMNQVLDAYENKKPFYLYTGRGPSSEAMHVGHLIPFIFTKWLQDVFNVPLVIQMTDDEKYLWKDLTLDQAYSYAVENAKDIIACGFDINKTFIFSDLDYMGMSSGFYKNVVKIQKHVTFNQVKGIFGFTDSDCIGKISFPAIQAAPSFSNSFPQIFRDRTDIQCLIPCAIDQDPYFRMTRDVAPRIGYPKPALLHSTFFPALQGAQTKMSASDPNSSIFLTDTAKQIKTKVNKHAFSGGRDTIEEHRQFGGNCDVDVSFMYLTFFLEDDDKLEQIRKDYTSGAMLTGELKKALIEVLQPLIAEHQARRKEVTDEIVKEFMTPRKLSFDFQ
B4: CARS (enzyme, UniProt P49589 1-748)
chain: MADSSGQQGKGRRVQPQWSPPAGTQPCRLHLYNSLTRNKEVFIPQDGKKVTWYCCGPTVYDASHMGHARSYISFDILRRVLKDYFKFDVFYCMNITDIDDKIIKRARQNHLFEQYREKRPEAAQLLEDVQAALKPFSVKLNETTDPDKKQMLERIQHAVQLATEPLEKAVQSRLTGEEVNSCVEVLLEEAKDLLSDWLDSTLGCDVTDNSIFSKLPKFWEGDFHRDMEALNVLPPDVLTRVSEYVPEIVNFVQKIVDNGYGYVSNGSVYFDTAKFASSEKHSYGKLVPEAVGDQKALQEGEGDLSISADRLSEKRSPNDFALWKASKPGEPSWPCPWGKGRPGWHIECSAMAGTLLGASMDIHGGGFDLRFPHHDNELAQSEAYFENDCWVRYFLHTGHLTIAGCKMSKSLKNFITIKDALKKHSARQLRLAFLMHSWKDTLDYSSNTMESALQYEKFLNEFFLNVKDILRAPVDITGQFEKWGEEEAELNKNFYDKKTAIHKALCDNVDTRTVMEEMRALVSQCNLYMAARKAVRKRPNQALLENIALYLTHMLKIFGAVEEDSSLGFPVGGPGTSLSLEATVMPYLQVLSEFREGVRKIAREQKVPEILQLSDALRDNILPELGVRFEDHEGLPTVVKLVDRNTLLKEREEKRRVEEEKRKKKEEAARRKQEQEAAKLAKMKIPPSEMFLSETDKYSKFDENGLPTHDMEGKELSKGQAKKLKKLFEAQEKLYKEYLQMAQNGSFQ
B5: GARS (enzyme, UniProt P41250 37-739)
chain: SAASCPPISLPAAASRSSMDGAGAEEVLAPLRLAVRQQGDLVRKLKEDKAPQVDVDKAVAELKARKRVLEAKELALQPKDDIVDRAKMEDTLKRRFFYDQAFAIYGGVSGLYDFGPVGCALKNNIIQTWRQHFIQEEQILEIDCTMLTPEPVLKTSGHVDKFADFMVKDVKNGECFRADHLLKAHLQKLMSDKKCSVEKKSEMESVLAQLDNYGQQELADLFVNYNVKSPITGNDLSPPVSFNLMFKTFIGPGGNMPGYLRPETAQGIFLNFKRLLEFNQGKLPFAAAQIGNSFRNEISPRSGLIRVREFTMAEIEHFVDPSEKDHPKFQNVADLHLYLYSAKAQVSGQSARKMRLGDAVEQGVINNTVLGYFIGRIYLYLTKVGISPDKLRFRQHMENEMAHYACDCWDAESKTSYGWIEIVGCADRSCYDLSCHARATKVPLVAEKPLKEPKTVNVVQFEPSKGAIGKAYKKDAKLVMEYLAICDECYITEMEMLLNEKGEFTIETEGKTFQLTKDMINVKRFQKTLYVEEVVPNVIEPSFGLGRIMYTVFEHTFHVREGDEQRTFFSFPAVVAPFKCSVLPLSQNQEFMPFVKELSEALTRHGVSHKVDDSSGSIGRRYARTDEIGVAFGVTIDFDTVNKTPHTATLRDRDSMRQIRAEISELPSIVQDLANGNITWADVEARYPLFEGQETGKKETIEE
B6: HARS (enzyme, UniProt P12081 1-509)
chain: MAERAALEELVKLQGERVRGLKQQKASAELIEEEVAKLLKLKAQLGPDESKQKFVLKTPKGTRDYSPRQMAVREKVFDVIIRCFKRHGAEVIDTPVFELKETLMGKYGEDSKLIYDLKDQGGELLSLRYDLTVPFARYLAMNKLTNIKRYHIAKVYRRDNPAMTRGRYREFYQCDFDIAGNFDPMIPDAECLKIMCEILSSLQIGDFLVKVNDRRILDGMFAICGVSDSKFRTICSSVDKLDKVSWEEVKNEMVGEKGLAPEVADRIGDYVQQHGGVSLVEQLLQDPKLSQNKQALEGLGDLKLLFEYLTLFGIDDKISFDLSLARGLDYYTGVIYEAVLLQTPAQAGEEPLGVGSVAAGGRYDGLVGMFDPKGRKVPCVGLSIGVERIFSIVEQRLEALEEKIRTTETQVLVASAQKKLLEERLKLVSELWDAGIKAELLYKKNPKLLNQLQYCEEAGIPLVAIIGEQELKDGVIKLRSVTSREEVDVRREDLVEEIKRRTGQPLCIC
B7: NARS (enzyme, UniProt O43776 1-548)
chain: MVLAELYVSDREGSDATGDGTKEKPFKTGLKALMTVGKEPFPTIYVDSQKENERWNVISKSQLKNIKKMWHREQMKSESREKKEAEDSLRREKNLEEAKKITIKNDPSLPEPKCVKIGALEGYRGQRVKVFGWVHRLRRQGKNLMFLVLRDGTGYLQCVLADELCQCYNGVLLSTESSVAVYGMLNLTPKGKQAPGGHELSCDFWELIGLAPAGGADNLINEESDVDVQLNNRHMMIRGENMSKILKARSMVTRCFRDHFFDRGYYEVTPPTLVQTQVEGGATLFKLDYFGEEAFLTQSSQLYLETCLPALGDVFCIAQSYRAEQSRTRRHLAEYTHVEAECPFLTFDDLLNRLEDLVCDVVDRILKSPAGSIVHELNPNFQPPKRPFKRMNYSDAIVWLKEHDVKKEDGTFYEFGEDIPEAPERLMTDTINEPILLCRFPVEIKSFYMQRCPEDSRLTESVDVLMPNVGEIVGGSMRIFDSEEILAGYKREGIDPTPYYWYTDQRKYGTCPHGGYGLGLERFLTWILNRYHIRDVCLYPRFVQRCTP

Target: lysyl-tRNA synthetase (KARS) tagged with S/FLAG/SBP (UniProt Q15046)
Assay: affinity purification with mass spectrometry; S/FLAG/SBP-KARS in lysate (2 mg) of transfected HEK 293T cells held on streptavidin agarose, NETN buffer (20 mM Tris-HCl pH 7.5, 1 mM EDTA, 150 mM NaCl, 0.1% NP-40), 2 h, 4°C, three washes, eluted with 0.82 mM biotin; eluate fractionated by SEC (Superdex 200, PBS) and each fraction read by MRM-MS

Binder	binding
B1	binds
B2	no binding
B3	no binding
B4	no binding
B5	no binding
B6	no binding
B7	no binding
